Data source: PubChem BioAssay AID686943 (Drosophila RNAi Screening Center, 2013)
The screen tested about 23,000 reagents; this is a random part of those that have a named target and a result. 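Extra replicates exist only for a retested subset of genes; insulin dose and duration not given; both raised and lowered dpERK matter.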 The numbers tell different reagents against one gene apart. Further read-outs or replicates are left out here. No sequences are given here. The record does not give: the amount of reagent, the time to read-out.

Aim: 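Search across the genome for regulators of signalling from receptor tyrosine kinase to ERK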 (primary screen)
System: Drosophila S2R+ haemocyte-like cells expressing YFP-tagged ERK (Rolled)
Reagent: long dsRNA against Drosophila genes
Conditions: insulin stimulation versus unstimulated cells; dose and duration not given
Measurement: 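Antibody staining for doubly phosphorylated ERK divided by ERK-YFP signal, as plate z-scores, in insulin-treated and untreated cells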
Scale: replicate 1, z-score of dpERK with insulin and replicate 2, z-score of dpERK with insulin: higher = more active ERK per ERK-YFP after insulin

Dpit47 (DNA polymerase interacting tpr containing protein of 47kD) — replicate 1, z-score of dpERK with insulin = -2.6; replicate 2, z-score of dpERK with insulin = -0.21
CG32102 — replicate 1, z-score of dpERK with insulin = 0.28; replicate 2, z-score of dpERK with insulin = -0.38
CG9890 — replicate 1, z-score of dpERK with insulin = 0.28; replicate 2, z-score of dpERK with insulin = 0.97
chk (chaski) — replicate 1, z-score of dpERK with insulin = 0.66; replicate 2, z-score of dpERK with insulin = 0.68
CG3769 — replicate 1, z-score of dpERK with insulin = 0.77; replicate 2, z-score of dpERK with insulin = 0.18
CG8915 — replicate 1, z-score of dpERK with insulin = -0.74; replicate 2, z-score of dpERK with insulin = 0.01
CG10839 — replicate 1, z-score of dpERK with insulin = -0.74; replicate 2, z-score of dpERK with insulin = -0.56
Rrp5 (Ribosomal RNA Processing 5) — replicate 1, z-score of dpERK with insulin = 0.09; replicate 2, z-score of dpERK with insulin = 0.23
Cyp4e1 (Cytochrome P450 4e1) — replicate 1, z-score of dpERK with insulin = -0.25; replicate 2, z-score of dpERK with insulin = 0.44
Rbm13 (RNA-binding motif protein 13) — replicate 1, z-score of dpERK with insulin = 1.38; replicate 2, z-score of dpERK with insulin = 0.18
Or9a (Odorant receptor 9a) — replicate 1, z-score of dpERK with insulin = 1.08; replicate 2, z-score of dpERK with insulin = 0.19

Part of the list above, showing only “replicate 2, z-score of dpERK with insulin”:
Cyp4e1 (Cytochrome P450 4e1) = 0.44
Rbm13 (RNA-binding motif protein 13) = 0.18

Additional reagents:
U2af38 (U2 small nuclear riboprotein auxiliary factor 38) — replicate 1, z-score of dpERK with insulin = -1.17; replicate 2, z-score of dpERK with insulin = -2.56
Sec24CD (Secretory 24CD) — replicate 1, z-score of dpERK with insulin = 0.64; replicate 2, z-score of dpERK with insulin = -0.38
ND-MLRQ (NADH dehydrogenase (ubiquinone) MLRQ subunit) — replicate 1, z-score of dpERK with insulin = -1.15; replicate 2, z-score of dpERK with insulin = -0.17
mahj (mahjong) — replicate 1, z-score of dpERK with insulin = -0.4; replicate 2, z-score of dpERK with insulin = -1.12
Cyp308a1 (Cytochrome P450 308a1) — replicate 1, z-score of dpERK with insulin = -0.42; replicate 2, z-score of dpERK with insulin = 0.13
CG42541 #1 — replicate 1, z-score of dpERK with insulin = -0.06; replicate 2, z-score of dpERK with insulin = -0.92
CG42541 #2 — replicate 1, z-score of dpERK with insulin = -4.22; replicate 2, z-score of dpERK with insulin = -2.17
CG42541 #3 — replicate 1, z-score of dpERK with insulin = 0.06; replicate 2, z-score of dpERK with insulin = 1.06
trp (transient receptor potential) — replicate 1, z-score of dpERK with insulin = 0.04; replicate 2, z-score of dpERK with insulin = -0.06
Toll-6 — replicate 1, z-score of dpERK with insulin = 0.38; replicate 2, z-score of dpERK with insulin = 0.56
CG32726 — replicate 1, z-score of dpERK with insulin = 0.47; replicate 2, z-score of dpERK with insulin = 0.21
CycY (Cyclin Y) — replicate 1, z-score of dpERK with insulin = 1.1; replicate 2, z-score of dpERK with insulin = 1.76
Drice (Death related ICE-like caspase) — replicate 1, z-score of dpERK with insulin = 0.31; replicate 2, z-score of dpERK with insulin = 0.56
CG31436 — replicate 1, z-score of dpERK with insulin = 1.32; replicate 2, z-score of dpERK with insulin = 0
RASSF8 (Ras association domain family member 8) — replicate 1, z-score of dpERK with insulin = 0.23; replicate 2, z-score of dpERK with insulin = 0.77
dos #1 — replicate 1, z-score of dpERK with insulin = -5.34; replicate 2, z-score of dpERK with insulin = -4.8
dos #2 — replicate 1, z-score of dpERK with insulin = 0.34; replicate 2, z-score of dpERK with insulin = -0.19
CG40498 — replicate 1, z-score of dpERK with insulin = -0.03; replicate 2, z-score of dpERK with insulin = -0.1
CG10465 — replicate 1, z-score of dpERK with insulin = 0.69; replicate 2, z-score of dpERK with insulin = 0.33
Dif (Dorsal-related immunity factor) — replicate 1, z-score of dpERK with insulin = 0.27; replicate 2, z-score of dpERK with insulin = 0.45
